Reference: the supplement of paper PMC3334620
Over roughly 33,000 sequences, “E-score (-0.5 to 0.5)” has its median near -8e-05; the highest 2% begin near 0.23. The list shows a part of the results.

Molecular target: T1, Nrg2 (UniProt P38082)
T1 sequence: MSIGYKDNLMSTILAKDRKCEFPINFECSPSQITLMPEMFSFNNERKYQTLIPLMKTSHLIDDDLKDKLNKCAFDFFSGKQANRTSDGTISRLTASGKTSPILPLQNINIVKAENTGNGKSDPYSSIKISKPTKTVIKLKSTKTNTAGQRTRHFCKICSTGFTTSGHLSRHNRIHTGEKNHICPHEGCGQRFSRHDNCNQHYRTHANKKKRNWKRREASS
Assay: PBM E-score (8-mer binding enrichment) (E-score (-0.5 to 0.5)); higher = stronger / more preferred TF binding
Settings: protein concentration: 100 nM; construct: GST-full length
In short: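 E-scores (a modified Wilcoxon-Mann-Whitney statistic) were assigned by the Universal PBM Analysis Suite to every ungapped eight-base word pooled with its reverse complement. The input came from universal all-10-mer Agilent arrays made double-stranded by primer extension and probed with GST-tagged yeast transcription factors at about 100-200 nM. Fluorescent anti-GST detected bound protein, and masliner normalised the scans.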

Going from AGTGTATA to CAATCTAA, the “PBM E-score” value falls from -0.00713 to -0.0579.

Compared with AGGTTCAC, AGCGAGCT is higher in “PBM E-score” value: 0.016 for the first, 0.196 for the second.

Compared with CGCGTGAG, AAACTACT is higher in “PBM E-score” value: 0.122 for the first, 0.144 for the second.

First: GACCGGTA
Second: AATTCCGC
The “PBM E-score” value of the first is lower: -0.284 for the first, 0.0765 for the second.

First: AAAAGCAT
Second: GTGCGGAA
The “PBM E-score” value of the first is lower: 0.0445 for the first, 0.0665 for the second.

Going from GATTCAAC to ATGACCAC, the “PBM E-score” value falls from 0.00265 to -0.122.

Going from GGACCATA to CAGTCTGC, the “PBM E-score” value falls from -0.023 to -0.113.

First: GGGGCTTA
Second: AGGGACAC
The “PBM E-score” value of the first is lower: -0.222 for the first, 0.204 for the second.

First: ACTTCACG
Second: ACTTTAGA
The “PBM E-score” value of the first is lower: -0.123 for the first, -0.00459 for the second.

First: AGCGACGC
Second: AAACACCG
The “PBM E-score” value of the first is lower: -0.0635 for the first, 0.0159 for the second.

Compared with ACGATAGC, ACGCATTC is higher in “PBM E-score” value: -0.0673 for the first, 0.0337 for the second.

Going from CACAGATA to CTTAATTC, the “PBM E-score” value rises from 0.0158 to 0.103.

Compared with GGATCACC, GACAGCGA is lower in “PBM E-score” value: -0.046 for the first, -0.131 for the second.

Compared with GGAATCCC, ACCTATTG is higher in “PBM E-score” value: -0.0604 for the first, -0.0421 for the second.

Compared with GTACGACA, ATCACCCA is lower in “PBM E-score” value: 0.061 for the first, -0.0261 for the second.

Going from GGTTATTA to AGCACCCG, the “PBM E-score” value falls from 0.132 to -0.0712.

First: GCGGCTCC
Second: CGCTTAGC
The “PBM E-score” value of the first is lower: -0.275 for the first, -0.155 for the second.

First: ACGAATAT
Second: CCGTGGCA
The “PBM E-score” value of the first is higher: 0.159 for the first, -0.1 for the second.

Compared with AGGTAAAC, AGCTCTAT is lower in “PBM E-score” value: 0.08 for the first, -0.073 for the second.

Going from GAATCCAC to CATATCCG, the “PBM E-score” value rises from -0.0338 to 0.0953.

Compared with CGTGCAAG, CAACGTGC is lower in “PBM E-score” value: 0.0549 for the first, -0.0969 for the second.

Compared with AGCACCAT, CTCCGTCC is lower in “PBM E-score” value: -0.134 for the first, -0.245 for the second.

Going from ATATAGCG to GAGCGGCA, the “PBM E-score” value falls from -0.0724 to -0.0956.

Compared with CAAGCCCC, ACTAGCTG is higher in “PBM E-score” value: -0.0421 for the first, 0.0379 for the second.

Compared with AACCCAAA, ATATAAAT is higher in “PBM E-score” value: 0.00356 for the first, 0.252 for the second.

Compared with CAGTGACA, AGTTAGCG is higher in “PBM E-score” value: -0.0545 for the first, 0.162 for the second.

First: CCCGCGAC
Second: CACTTAGA
The “PBM E-score” value of the first is lower: -0.14 for the first, 0.0291 for the second.

First: CGTTACAA
Second: GTAACAGA
The “PBM E-score” value of the first is lower: 0.0719 for the first, 0.154 for the second.

First: GGAACGCA
Second: ATAACGAG
The “PBM E-score” value of the first is higher: 0.0954 for the first, 0.0539 for the second.

Going from GGACTCAA to AGGCCCGA, the “PBM E-score” value falls from 0.139 to -0.193.

First: ATTTATCA
Second: TGATTGAA
The “PBM E-score” value of the first is higher: 0.225 for the first, 0.147 for the second.

Going from CTCGTAAA to CATGTTTC, the “PBM E-score” value rises from -0.0593 to 0.0878.

First: ACGAAAGA
Second: CTCACTTA
The “PBM E-score” value of the first is higher: 0.0363 for the first, -0.0533 for the second.

Going from ATGACGCG to CACGTGGA, the “PBM E-score” value falls from 0.187 to 0.0556.

Going from AACTGTCC to CGCCCTAG, the “PBM E-score” value rises from -0.0683 to 0.084.

First: TCGCTTAA
Second: AAAGTGTA
The “PBM E-score” value of the first is higher: 0.0825 for the first, 0.0766 for the second.

Going from TTGAACAA to AGACCGTA, the “PBM E-score” value falls from -0.0525 to -0.242.

First: CAAGGATC
Second: CCCGGCAG
The “PBM E-score” value of the first is higher: 0.0487 for the first, -0.0782 for the second.

Going from GACCTCGA to ATCCGTGA, the “PBM E-score” value falls from 0.126 to -0.0049.

Going from ATCTAAGG to ACCTAACG, the “PBM E-score” value falls from 0.128 to -0.0736.

Going from ATGCGTGG to ACTAGATC, the “PBM E-score” value rises from -0.189 to 0.0954.

First: GAGCCAGC
Second: GTGTTCAA
The “PBM E-score” value of the first is lower: -0.198 for the first, -0.0711 for the second.

First: CGAATAAC
Second: ACCGAGGT
The “PBM E-score” value of the first is higher: 0.111 for the first, -0.182 for the second.

First: CCCCCGAC
Second: CCTCACCG
The “PBM E-score” value of the first is lower: -0.341 for the first, -0.173 for the second.

First: CGAAGTTA
Second: CTCTCTTA
The “PBM E-score” value of the first is higher: 0.0669 for the first, -0.0805 for the second.

First: AAAGCGGC
Second: AGTGCTCA
The “PBM E-score” value of the first is higher: -0.0596 for the first, -0.18 for the second.

First: AGACGTGG
Second: ACTTTAAA
The “PBM E-score” value of the first is lower: -0.0559 for the first, 0.0738 for the second.

Compared with CGATTATA, AGCGGTGG is lower in “PBM E-score” value: 0.138 for the first, -0.061 for the second.

Going from CAAGCTCA to AAGTCCTC, the “PBM E-score” value rises from -0.067 to -0.0153.

First: AATCCTGT
Second: GAATTCGA
The “PBM E-score” value of the first is higher: 0.0715 for the first, 0.0262 for the second.

First: CTTATGAC
Second: GCTGAGAA
The “PBM E-score” value of the first is lower: 0.0239 for the first, 0.0902 for the second.

Compared with AGCATGTA, CGTTATTC is lower in “PBM E-score” value: -0.024 for the first, -0.0979 for the second.

Compared with CCATGCAC, GGGGACCA is higher in “PBM E-score” value: -0.0815 for the first, 0.0565 for the second.

First: AGTGTTCC
Second: CACCGAGC
The “PBM E-score” value of the first is lower: -0.03 for the first, -0.0218 for the second.

First: GGTATACC
Second: ACTTTTCC
The “PBM E-score” value of the first is lower: 0.0403 for the first, 0.0561 for the second.

Going from TGTTGCAA to ATAGAGAG, the “PBM E-score” value falls from 0.268 to -0.191.

First: TATGAGCA
Second: CCCTTTAC
The “PBM E-score” value of the first is lower: -0.127 for the first, 0.102 for the second.

Going from AAAAAGTA to AATCTGCG, the “PBM E-score” value rises from 0.0499 to 0.166.

Going from AACAGTAA to ACTAGAGT, the “PBM E-score” value falls from 0.0109 to -0.204.

Compared with ACAGCTCT, CTCTAGAG is higher in “PBM E-score” value: -0.254 for the first, 0.0354 for the second.

First: ACTGTTAA
Second: AATGGATA
The “PBM E-score” value of the first is higher: 0.0564 for the first, 0.00185 for the second.

Compared with GATGACAC, CAACGATG is lower in “PBM E-score” value: 0.0199 for the first, -0.049 for the second.

Compared with AACTTTCG, ACGCCCGC is lower in “PBM E-score” value: 0.0282 for the first, -0.0617 for the second.

Going from GTTCAGCA to GTGGGCCA, the “PBM E-score” value falls from -0.00891 to -0.0756.

Compared with CATCGTCA, AGGAAAAG is higher in “PBM E-score” value: 0.0132 for the first, 0.13 for the second.

First: GTCTGTCA
Second: CCCTCTGA
The “PBM E-score” value of the first is higher: 0.153 for the first, -0.00534 for the second.

Going from ATCGAGGC to AAAGGAGT, the “PBM E-score” value rises from -0.0417 to -0.0141.

First: ACCTGGTG
Second: GATGTACA
The “PBM E-score” value of the first is lower: -0.231 for the first, 0.0667 for the second.

Going from GACTGAAC to CGTCAGGA, the “PBM E-score” value rises from -0.232 to -0.112.

Compared with GGTCCAAC, AATCGCGG is higher in “PBM E-score” value: 0.0117 for the first, 0.162 for the second.

Going from CACCTGCC to ACAGAATC, the “PBM E-score” value falls from 0.0283 to 0.00693.

First: AGATGTAT
Second: TATATTAA
The “PBM E-score” value of the first is lower: 0.0916 for the first, 0.234 for the second.

Going from ACTGCGAC to AAACGAGG, the “PBM E-score” value falls from 0.0437 to -0.0504.

First: ACCGCTAG
Second: CTAGGTAA
The “PBM E-score” value of the first is higher: -0.1 for the first, -0.139 for the second.

Going from AACTTGTC to CAGTAGCG, the “PBM E-score” value falls from 0.00668 to -0.0548.

Compared with TAACTCGA, ACACGTGA is lower in “PBM E-score” value: 0.294 for the first, 0.0954 for the second.

Compared with ACGCATTG, CTGCAAAA is higher in “PBM E-score” value: 0.00161 for the first, 0.0323 for the second.

Compared with CGCCAGAG, ATTAGAAT is higher in “PBM E-score” value: 0.037 for the first, 0.161 for the second.

First: AACGCGAT
Second: ATTACAGC
The “PBM E-score” value of the first is higher: 0.0868 for the first, -0.18 for the second.

First: CCGAGATC
Second: CAGAACCA
The “PBM E-score” value of the first is higher: 0.068 for the first, -0.061 for the second.

Compared with AAAAGATG, GATCGTAA is lower in “PBM E-score” value: -0.0369 for the first, -0.0753 for the second.

Going from CAAGGTTC to CCCAACTC, the “PBM E-score” value rises from -0.224 to 0.256.

Compared with GACAAGAA, AAAACCTT is lower in “PBM E-score” value: 0.149 for the first, -0.145 for the second.

First: CATGGGCC
Second: GACGTCGC
The “PBM E-score” value of the first is higher: -0.055 for the first, -0.0786 for the second.

Going from TACCAGTA to CTATCCTC, the “PBM E-score” value falls from 0.00025 to -0.108.

Compared with ATATCGGC, GGAAGTAC is lower in “PBM E-score” value: 0.0719 for the first, 0.0716 for the second.
